Assay results taken from US20040009485A1, “Cellular arrays for the identification of altered gene expression” (priority 2002, published 2004).
The source gives many values for each of these; only a part stands here.

System: LuxArray 1.04 E. coli strains (luxCDABE gene fusions)
Test: LuxArray 1.04 limonene stress of the reporter array in liquid culture
Format: cell-based
Details: 80% saturated limonene in LB
Procedure: Microplates from −80° C. containing the LuxArray 1.04 E. coli strains were thawed and used to inoculate 100 μl LB medium supplemented with 100 μg/ml ampicillin in Costar#3595 flat bottomed 96-well microplates. Following overnight growth at 37° C., the plates were visually examined and any wells with little or no turbidity were recorded. Then these cultures were diluted by transfer of 15 μl to 135 μl LB medium in Costar #3595, flat bottom 96-well microplates and were moderately swirl shaken on an IKA Schuttler MTS 4 shaker at setting 400 for two hrs at 37° C. in a humidified box. Twenty μl of each these actively growing cultures were transferred to the corresponding well in sets of three microplates, one containing 80 μl of LB medium, another containing 80 μl of LB medium saturated with limonene at room temperature, and the third containing 40 μl of LB medium saturated with limonene and 40 μl of LB medium. An initial (zero time) reading was taken using an MLX microplate luminometer (Dynex) pre-warmed to 37° C. Then the plates were placed at 37° C. without shaking. Additional bioluminescent measurements were taken at 45, 90, and 135 minutes. To limit the number of microplates handled each day, LuxArray 1.04 microplates 1 to 5, microplates 6 to 10, microplates 11 to 15, and microplates […] were used on each of four different days.
The data were normalized to correct for growth-inhibition caused by limonene on the basis of each individual day that data was collected. The bioluminescence (RLU) of each individual culture for each day of experimentation under each of the three conditions, were added to determine the daily array total RLU. These were used to find a daily normalization factor (DNF) as follows:
DNF=Daily total array signal(time zero, LB control)/Daily total array signal(time x, condition y)
Each measurement from the corresponding day, time point, and condition was multiplied by DNF to yield a normalized signal. The data from wells that were scored to have little or no growth were not used in further analysis. The normalized data were analyzed with GeneSpring (Silicon Genetics) software, which averaged the signal from each of the duplicate cultures for each reporter gene fusion.
Thus, patterns of gene expression from the 80% saturated limonene in LB medium were further examined. […] These lists were examined and gene fusions with very low normalized RLU values (<0.012 RLU) at all conditions were eliminated. […] The designation of “>2X” is given for upregulation while “*” is listed if the expression was less than 2 fold increased. At 45 minutes, the expression of fourteen gene fusions was increased; none of these was increased 3 fold or higher. At 90 minutes, 37 gene fusions were induced; these included all but one of the gene fusions observed at 45 minutes. […] These were fusions of the luxCDABE reporter to the promoter regions of uhpT (3.8×), nirB (3.7×) and narK (3.6×). At 135 minutes, 39 gene fusions were induced, which included 13 fusions not observed at 45 or 90 minutes.

Q: How did the “upregulation of gene fusion” value (b0116 (lpdA) fusion, 45 minutes) turn out when `C=C(C)[C@H]1CC=C(C)CC1` [limonene] was run?
A: >2X (The designation of “>2X” is given for upregulation)

Q: What about the “upregulation of gene fusion” value (b0116 (lpdA) fusion, 90 minutes) of the same molecule?
A: >2X (The designation of “>2X” is given for upregulation)

Q: What about the “upregulation of gene fusion” value (b0116 (lpdA) fusion, 135 minutes) of the same molecule?
A: * (“*” is listed if the expression was less than 2 fold increased)

Q: What about the “upregulation of gene fusion” value (b0123 (yacK) fusion, 90 minutes) of the same molecule?
A: * (“*” is listed if the expression was less than 2 fold increased)

Q: What about the “upregulation of gene fusion” value (b0123 (yacK) fusion, 135 minutes) of the same molecule?
A: >2X (The designation of “>2X” is given for upregulation)

Q: What about the “upregulation of gene fusion” value (b0168 (map) fusion, 45 minutes) of the same molecule?
A: >2X (The designation of “>2X” is given for upregulation)

Q: What about the “upregulation of gene fusion” value (b0168 (map) fusion, 90 minutes) of the same molecule?
A: >2X (The designation of “>2X” is given for upregulation)

Q: And the “upregulation of gene fusion” value (b0168 (map) fusion, 135 minutes)?
A: * (“*” is listed if the expression was less than 2 fold increased)

Q: And the “upregulation of gene fusion” value (b0386 (proC) fusion, 45 minutes)?
A: * (“*” is listed if the expression was less than 2 fold increased)

Q: And the “upregulation of gene fusion” value (b0386 (proC) fusion, 90 minutes)?
A: * (“*” is listed if the expression was less than 2 fold increased)

Q: What about the “upregulation of gene fusion” value (b0386 (proC) fusion, 135 minutes) of the same molecule?
A: >2X (The designation of “>2X” is given for upregulation)

Q: And the “upregulation of gene fusion” value (b0450 (glnK) fusion, 45 minutes)?
A: * (“*” is listed if the expression was less than 2 fold increased)

Q: What about the “upregulation of gene fusion” value (b0450 (glnK) fusion, 90 minutes) of the same molecule?
A: * (“*” is listed if the expression was less than 2 fold increased)

Q: And the “upregulation of gene fusion” value (b0450 (glnK) fusion, 135 minutes)?
A: >2X (The designation of “>2X” is given for upregulation)

Q: What about the “upregulation of gene fusion” value (b0767 (ybhE) fusion, 45 minutes) of the same molecule?
A: >2X (The designation of “>2X” is given for upregulation)

Q: And the “upregulation of gene fusion” value (b0767 (ybhE) fusion, 90 minutes)?
A: >2X (The designation of “>2X” is given for upregulation)

Q: What about the “upregulation of gene fusion” value (b0767 (ybhE) fusion, 135 minutes) of the same molecule?
A: >2X (The designation of “>2X” is given for upregulation)

Q: And the “upregulation of gene fusion” value (b0774 (bioA) fusion, 45 minutes)?
A: * (“*” is listed if the expression was less than 2 fold increased)

Q: What about the “upregulation of gene fusion” value (b0774 (bioA) fusion, 90 minutes) of the same molecule?
A: * (“*” is listed if the expression was less than 2 fold increased)

Q: What about the “upregulation of gene fusion” value (b0774 (bioA) fusion, 135 minutes) of the same molecule?
A: >2X (The designation of “>2X” is given for upregulation)

Q: What about the “upregulation of gene fusion” value (b0842 fusion, 45 minutes) of the same molecule?
A: >2X (The designation of “>2X” is given for upregulation)

Q: And the “upregulation of gene fusion” value (b0842 fusion, 90 minutes)?
A: >2X (The designation of “>2X” is given for upregulation)

Q: And the “upregulation of gene fusion” value (b0842 fusion, 135 minutes)?
A: >2X (The designation of “>2X” is given for upregulation)

Q: And the “upregulation of gene fusion” value (b1186 (nhaB) fusion, 45 minutes)?
A: >2X (The designation of “>2X” is given for upregulation)

Q: What about the “upregulation of gene fusion” value (b1186 (nhaB) fusion, 90 minutes) of the same molecule?
A: >2X (The designation of “>2X” is given for upregulation)

Q: What about the “upregulation of gene fusion” value (b1186 (nhaB) fusion, 135 minutes) of the same molecule?
A: >2X (The designation of “>2X” is given for upregulation)

Q: And the “upregulation of gene fusion” value (b1413 (hrpA) fusion, 45 minutes)?
A: >2X (The designation of “>2X” is given for upregulation)

Q: What about the “upregulation of gene fusion” value (b1413 (hrpA) fusion, 90 minutes) of the same molecule?
A: >2X (The designation of “>2X” is given for upregulation)

Q: And the “upregulation of gene fusion” value (b1413 (hrpA) fusion, 135 minutes)?
A: >2X (The designation of “>2X” is given for upregulation)

Q: What about the “upregulation of gene fusion” value (b1847 (yebF) fusion, 45 minutes) of the same molecule?
A: * (“*” is listed if the expression was less than 2 fold increased)

Q: And the “upregulation of gene fusion” value (b1847 (yebF) fusion, 90 minutes)?
A: * (“*” is listed if the expression was less than 2 fold increased)

Q: And the “upregulation of gene fusion” value (b1847 (yebF) fusion, 135 minutes)?
A: >2X (The designation of “>2X” is given for upregulation)

Q: What about the “upregulation of gene fusion” value (b1852 (zwf) fusion, 45 minutes) of the same molecule?
A: * (“*” is listed if the expression was less than 2 fold increased)

Q: What about the “upregulation of gene fusion” value (b1852 (zwf) fusion, 90 minutes) of the same molecule?
A: * (“*” is listed if the expression was less than 2 fold increased)

Q: And the “upregulation of gene fusion” value (b1852 (zwf) fusion, 135 minutes)?
A: >2X (The designation of “>2X” is given for upregulation)

Q: What about the “upregulation of gene fusion” value (b2019 (hisG) fusion, 45 minutes) of the same molecule?
A: * (“*” is listed if the expression was less than 2 fold increased)

Q: And the “upregulation of gene fusion” value (b2019 (hisG) fusion, 90 minutes)?
A: * (“*” is listed if the expression was less than 2 fold increased)

Q: And the “upregulation of gene fusion” value (b2019 (hisG) fusion, 135 minutes)?
A: >2X (The designation of “>2X” is given for upregulation)

Q: What about the “upregulation of gene fusion” value (b2114 (metG) fusion, 45 minutes) of the same molecule?
A: * (“*” is listed if the expression was less than 2 fold increased)

Q: And the “upregulation of gene fusion” value (b2114 (metG) fusion, 90 minutes)?
A: * (“*” is listed if the expression was less than 2 fold increased)

Q: And the “upregulation of gene fusion” value (b2114 (metG) fusion, 135 minutes)?
A: >2X (The designation of “>2X” is given for upregulation)

Q: What about the “upregulation of gene fusion” value (b2428 fusion, 45 minutes) of the same molecule?
A: * (“*” is listed if the expression was less than 2 fold increased)

Q: What about the “upregulation of gene fusion” value (b2428 fusion, 90 minutes) of the same molecule?
A: * (“*” is listed if the expression was less than 2 fold increased)

Q: What about the “upregulation of gene fusion” value (b2428 fusion, 135 minutes) of the same molecule?
A: >2X (The designation of “>2X” is given for upregulation)

Q: What about the “upregulation of gene fusion” value (b3573 fusion, 45 minutes) of the same molecule?
A: * (“*” is listed if the expression was less than 2 fold increased)

Q: What about the “upregulation of gene fusion” value (b3573 fusion, 90 minutes) of the same molecule?
A: * (“*” is listed if the expression was less than 2 fold increased)

Q: And the “upregulation of gene fusion” value (b3573 fusion, 135 minutes)?
A: >2X (The designation of “>2X” is given for upregulation)

Q: And the “upregulation of gene fusion” value (b3779 (gppA) fusion, 45 minutes)?
A: * (“*” is listed if the expression was less than 2 fold increased)

Q: And the “upregulation of gene fusion” value (b3779 (gppA) fusion, 90 minutes)?
A: * (“*” is listed if the expression was less than 2 fold increased)

Q: And the “upregulation of gene fusion” value (b3779 (gppA) fusion, 135 minutes)?
A: >2X (The designation of “>2X” is given for upregulation)

Q: And the “upregulation of gene fusion” value (b4226 (ppa) fusion, 45 minutes)?
A: * (“*” is listed if the expression was less than 2 fold increased)

Q: And the “upregulation of gene fusion” value (b4226 (ppa) fusion, 90 minutes)?
A: * (“*” is listed if the expression was less than 2 fold increased)

Q: What about the “upregulation of gene fusion” value (b4226 (ppa) fusion, 135 minutes) of the same molecule?
A: >2X (The designation of “>2X” is given for upregulation)
